In paper doi:10.1101/2023.12.13.571451 (bioRxiv, 2023):
No constants are given. Whether binding was seen depends on the method and setting. Binding seen in cells or lysates may run through a third protein. A yes stands for co-enrichment or nearness to the bait. Other partners may have been found.

Sequences of proteins named here, by UniProt entry; tags and fusion partners are left off.
UniProt P31539: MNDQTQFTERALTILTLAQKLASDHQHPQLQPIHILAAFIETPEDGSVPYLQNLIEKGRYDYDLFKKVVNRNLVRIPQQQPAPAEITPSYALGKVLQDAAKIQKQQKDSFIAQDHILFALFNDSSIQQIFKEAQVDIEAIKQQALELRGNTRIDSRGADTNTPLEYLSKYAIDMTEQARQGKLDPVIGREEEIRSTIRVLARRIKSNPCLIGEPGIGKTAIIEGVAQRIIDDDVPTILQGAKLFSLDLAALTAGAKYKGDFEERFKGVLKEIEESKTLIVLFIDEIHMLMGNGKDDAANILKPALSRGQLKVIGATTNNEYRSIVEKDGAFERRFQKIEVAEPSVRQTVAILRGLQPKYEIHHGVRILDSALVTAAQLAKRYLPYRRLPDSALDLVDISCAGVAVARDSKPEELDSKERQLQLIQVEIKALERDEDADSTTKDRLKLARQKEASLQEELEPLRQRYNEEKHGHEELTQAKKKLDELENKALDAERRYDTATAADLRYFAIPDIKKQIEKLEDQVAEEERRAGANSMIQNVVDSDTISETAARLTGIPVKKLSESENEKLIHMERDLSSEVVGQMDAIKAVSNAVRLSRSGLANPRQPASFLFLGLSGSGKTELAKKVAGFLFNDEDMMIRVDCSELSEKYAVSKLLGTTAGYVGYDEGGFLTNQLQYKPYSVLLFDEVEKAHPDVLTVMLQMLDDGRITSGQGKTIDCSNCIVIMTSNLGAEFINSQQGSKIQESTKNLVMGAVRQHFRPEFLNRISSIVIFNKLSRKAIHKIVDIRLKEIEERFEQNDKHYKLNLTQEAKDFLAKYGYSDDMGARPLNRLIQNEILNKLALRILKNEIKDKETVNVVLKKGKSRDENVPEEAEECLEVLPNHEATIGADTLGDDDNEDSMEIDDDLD
UniProt P10591: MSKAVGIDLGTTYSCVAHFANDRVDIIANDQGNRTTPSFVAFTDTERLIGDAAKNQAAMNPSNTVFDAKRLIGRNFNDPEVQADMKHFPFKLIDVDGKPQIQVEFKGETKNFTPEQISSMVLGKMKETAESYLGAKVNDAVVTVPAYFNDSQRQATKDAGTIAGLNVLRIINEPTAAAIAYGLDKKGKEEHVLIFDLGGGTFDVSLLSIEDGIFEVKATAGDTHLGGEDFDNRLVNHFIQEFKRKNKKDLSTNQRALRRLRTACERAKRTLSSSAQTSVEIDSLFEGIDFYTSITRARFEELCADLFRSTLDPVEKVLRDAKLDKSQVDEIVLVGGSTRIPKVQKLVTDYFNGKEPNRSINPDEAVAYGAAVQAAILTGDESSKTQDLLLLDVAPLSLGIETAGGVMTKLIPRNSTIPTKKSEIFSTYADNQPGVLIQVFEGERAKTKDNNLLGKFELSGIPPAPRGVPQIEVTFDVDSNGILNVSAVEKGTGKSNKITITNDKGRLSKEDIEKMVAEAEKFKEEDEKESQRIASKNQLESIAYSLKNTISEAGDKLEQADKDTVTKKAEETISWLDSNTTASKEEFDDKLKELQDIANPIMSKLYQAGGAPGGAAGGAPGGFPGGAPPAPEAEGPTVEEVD

T1: Tsa1^WT-TAP (S. cerevisiae) (UniProt P34760)
T1 sequence: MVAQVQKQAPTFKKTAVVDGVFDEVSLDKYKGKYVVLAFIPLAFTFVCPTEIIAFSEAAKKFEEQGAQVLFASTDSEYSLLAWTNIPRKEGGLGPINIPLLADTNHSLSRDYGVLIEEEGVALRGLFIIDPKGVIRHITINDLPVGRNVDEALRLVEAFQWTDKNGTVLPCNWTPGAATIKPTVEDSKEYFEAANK


Molecular target: T1, Tsa1^WT-TAP (S. cerevisiae)
Test: affinity purification with mass spectrometry

binding	Molecule
binds	Hsp104 (disaggregase, endogenous) (from UniProt P31539 1-908)
binds	Ssa1 (Hsp70, endogenous) (from UniProt P10591 1-642)
binds	Trx2 (thioredoxin, endogenous) (enzyme, UniProt P22803 1-104) MVTQLKSASEYDSALASGDKLVVVDFFATWCGPCKMIAPMIEKFAEQYSDAAFYKLDVDEVSDVAQKAEVSSMPTLIFYKGGKEVTRVVGANPAAIKQAIASNV
binds	Srx1 (sulfiredoxin, endogenous) (enzyme, UniProt P36077 1-127) MSLQSNSVKPTEIPLSEIRRPLAPVLDPQKIDAMVATMKGIPTASKTCSLEQAEAAASAGELPPVDVLGVRVKGQTLYYAFGGCHRLQAYDRRARETQNAAFPVRCRVLPATPRQIRMYLGSSLDIE
binds	recombinant Trx1-HIS (enzyme, S. cerevisiae, UniProt P22217 1-103, looked up) MVTQFKTASEFDSAIAQDKLVVVDFYATWCGPCKMIAPMIEKFSEQYPQADFYKLDVDELGDVAQKNEVSAMPTLLLFKNGKEVAKVVGANPAAIKQAIAANA
